We go through 4 substances from doi:10.1101/2025.04.03.647056.

Positions count from the first letter of the chain named. No constants are given. Whether binding was seen depends on the method and setting. For some of these results: Binding seen in cells or lysates may run through a third protein. For some of these results: Binding can be weak; no strength is given. For some of these results: Sequences can lack the tags named with a protein.

For assay [1], the target named is T1, GST-tagged NHSL3 fragment 1 (mouse) (UniProt A2A7S8).
T1 sequence: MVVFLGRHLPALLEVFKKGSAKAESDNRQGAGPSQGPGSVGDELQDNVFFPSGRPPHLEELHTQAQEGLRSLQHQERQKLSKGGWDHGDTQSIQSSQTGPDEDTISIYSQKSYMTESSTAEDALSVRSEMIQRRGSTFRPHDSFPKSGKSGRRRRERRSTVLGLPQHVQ
The assay is described as follows: far-Western, overlay or dot blot.

Assay [2] deals with T2, GST-tagged NHSL3 fragment 4 (aa535-701) (mouse) (UniProt A2A7S8).
T2 sequence: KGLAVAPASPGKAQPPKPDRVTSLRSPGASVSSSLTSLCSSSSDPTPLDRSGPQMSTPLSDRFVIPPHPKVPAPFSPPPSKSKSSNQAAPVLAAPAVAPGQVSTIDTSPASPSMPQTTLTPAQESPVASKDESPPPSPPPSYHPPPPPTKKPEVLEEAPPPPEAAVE
The experiment in a line: far-Western, overlay or dot blot.

The target of assay [3] is T3, NHSL3ΔFP4-1/2-EGFP (both EVH1 domain binding motifs mutated) (mouse) (UniProt A2A7S8).
T3 sequence: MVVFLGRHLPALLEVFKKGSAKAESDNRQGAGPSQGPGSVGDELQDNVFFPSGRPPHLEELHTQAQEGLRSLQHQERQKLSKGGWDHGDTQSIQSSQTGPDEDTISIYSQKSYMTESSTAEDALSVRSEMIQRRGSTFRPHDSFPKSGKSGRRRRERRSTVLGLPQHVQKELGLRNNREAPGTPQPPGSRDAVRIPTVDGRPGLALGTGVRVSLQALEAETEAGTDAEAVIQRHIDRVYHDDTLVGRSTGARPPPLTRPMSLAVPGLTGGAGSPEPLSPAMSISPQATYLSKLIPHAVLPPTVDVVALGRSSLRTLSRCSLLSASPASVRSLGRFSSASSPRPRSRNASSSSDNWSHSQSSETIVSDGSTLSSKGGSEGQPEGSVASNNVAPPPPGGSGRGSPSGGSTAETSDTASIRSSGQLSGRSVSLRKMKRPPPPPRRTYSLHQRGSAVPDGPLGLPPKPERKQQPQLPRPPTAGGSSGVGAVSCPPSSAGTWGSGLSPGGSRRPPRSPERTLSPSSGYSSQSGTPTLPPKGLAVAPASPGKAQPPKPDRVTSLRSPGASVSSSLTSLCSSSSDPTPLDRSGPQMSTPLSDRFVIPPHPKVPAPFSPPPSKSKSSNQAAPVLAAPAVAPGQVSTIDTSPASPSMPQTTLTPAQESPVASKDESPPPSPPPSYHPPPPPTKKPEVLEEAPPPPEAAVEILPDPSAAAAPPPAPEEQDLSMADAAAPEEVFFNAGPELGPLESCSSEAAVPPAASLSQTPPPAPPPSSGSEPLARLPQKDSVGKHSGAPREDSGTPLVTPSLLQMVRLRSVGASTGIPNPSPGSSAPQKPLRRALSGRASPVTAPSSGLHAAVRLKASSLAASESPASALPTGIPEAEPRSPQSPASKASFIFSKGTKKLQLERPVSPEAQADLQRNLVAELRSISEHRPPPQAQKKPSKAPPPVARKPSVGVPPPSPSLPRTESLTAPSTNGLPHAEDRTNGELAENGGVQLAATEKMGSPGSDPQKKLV
The experiment in a line: co-IP.

Assay [4] addresses T4, NHSL3ΔSH3ΔFP4-1/2-EGFP (Abi SH3 binding site and both EVH1 binding motifs mutated) (mouse) (UniProt A2A7S8).
T4 sequence: T3 sequence with P436A, P437A, P439A, P440A
The assay is described as follows: co-IP.

Assay [5] addresses T3, NHSL3ΔFP4-1/2-EGFP (both EVH1 domain binding motifs mutated) (mouse). The assay is described as follows: co-IP. This is another data set of the same source.
The target in assay [6] is T5, NHSL3ΔEVH1-1-EGFP (first EVH1 domain binding motif mutated) (mouse) (UniProt A2A7S8).
T5 sequence: T3 sequence with A726F, A727P, A728P
The assay is described as follows: pull-down.

Assay [7] concerns the target T6, NHSL3ΔEVH1-2-EGFP (second EVH1 domain binding motif mutated) (mouse) (UniProt A2A7S8).
T6 sequence: T3 sequence with A708W, A709P, A710P, A711P
The experiment in a line: pull-down.

The target of assay [8] is T3, NHSL3ΔFP4-1/2-EGFP (both EVH1 domain binding motifs mutated) (mouse). The experiment in a line: pull-down.
Assay [9] concerns the target NHSL3-EGFP (wild-type mouse NHSL3 isoform 1c, C-terminally tagged with EGFP) (mouse) (UniProt A2A7S8). The assay is described as follows: pull-down.
The target of assay [10] is endogenous NHSL3 (mouse (endogenous in B16-F1)) (UniProt A2A7S8). The experiment in a line: co-IP.

In the case of “MBP-Abi1 (full length) (human (printed as hsAbi1d))”, the binding entry in assay [1] and in [2] was “no binding” throughout.

As to Myc-Abi1 (human (printed as hsAbi1d)), the binding entry in assay [3], in assay [4] and in assay [5] was “binds” throughout.

In the case of Myc-Mena (from UniProt Q03173-3), the binding entry in assay [6] is on record as “no binding”; in assay [7], “no binding”; in assay [8], “no binding”; in [9] it was “binds”.

Take endogenous Mena (from UniProt Q03173-3): the binding result in [10] is “binds”.
